Source: PubChem BioAssay AID1347076 (National Center for Advancing Translational Sciences (NCATS), 2019)
Several values for one entry are separate records, joined by “and”; a condition that tells them apart may be missing. Equal values may be shown once. The campaign covered roughly 400,000 compounds. About 13,000 (3.2%) were called active. Inconclusive results, whose numbers are uncertain, are shown with a selection of clear calls. The call rests on the fitted dose curve; in most records, active means well fitted cell-killing curve with a large enough effect; inconclusive means small, poorly fitted or top-dose-only effect, or effect the other way; inactive means flat fitted curve, though single readings scatter. Potencies of inconclusive entries are doubtful fits and often do not repeat.

Test: qHTS assay for MDR1-selective chemotherapeutics: Primary screen using the drug-selected MDR subline cells KB-V1; further: nearly all actives have a fitted effect of over 60% in size
Details: KB-V1 MDR cells viability, CellTiter-Glo, 72 h; activity change, negative = cytotoxicity: at 46.1 µM (top of the series)
Procedure, shortened: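 Cytotoxicity via CellTiter-Glo luminescence after 72 h compound exposure at 37 degrees C. Cells: drug-selected KB-V1 line, DMEM phenol-red free plus 10% FBS. Compounds tested at multiple concentrations; normalized data fitted to concentration-effect curves.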
On the % scale 0 is the no-effect control and ±100 the full control effect; potency means the concentration at half of the fitted maximal effect.

**Q.** With Cc1cc2c3ccccc3[nH]c(=O)n2n1 as the compound, how does the “activity change, negative = cytotoxicity” value read?
**A.** inactive: 15.2%

**Q.** For COc1n[nH]c(C(=O)Nc2cc(Cl)ccc2Cl)c1[N+](=O)[O-], which Potency is on record?
**A.** inconclusive: 29.1 µM [cytotoxic, single point]

**Q.** Which “activity change, negative = cytotoxicity” value does the source give for Cc1ccccc1CS(=O)(=O)c1ccc(C(=O)N2CCC(C)CC2)cc1[N+](=O)[O-] here?
**A.** inactive: -22%

**Q.** With Cc1cc(C)c(C#N)c(N2CCN(S(=O)(=O)Cc3ccccc3)CC2)n1 as the compound, how does the “activity change, negative = cytotoxicity” value read?
**A.** inactive: -3.25%

**Q.** Which Potency does the source give for CCOc1ccc(-n2nc3ccc(NC(=O)Cc4ccccc4)cc3n2)cc1 here?
**A.** inconclusive: 29.1 µM [cytotoxic, single point]

**Q.** Which Potency does the source give for COC(=O)[C@@]1(Cc2ccc(F)cc2)[C@H]2c3cc(C(=O)N4CCCC4)n(CCc4ccc(OC)c(Br)c4)c3C[C@H]2CN1C(=O)c1ccccc1 here?
**A.** inconclusive: 14.6 µM [cytotoxic, single point]

**Q.** With CCCOC(=O)c1c(NC(=O)c2cc3ccccc3c(=O)o2)sc2c1CCC(C)C2 (configuration not stated) as the compound, how does the “activity change, negative = cytotoxicity” value read?
**A.** inactive: 5.58%

**Q.** With COc1cc(/C=C2/C(=N)N3OC(C)=CC3=NC2=O)ccc1OCCOc1ccc(C)cc1 as the compound, how does the Potency read?
**A.** inconclusive: 5.17 µM [cytotoxic, partial curve]

**Q.** With COc1ccc(NC(=O)C(=O)c2cn(CC(=O)N3CCCC3)c3ccccc23)cc1 as the compound, how does the Potency read?
**A.** inconclusive: 29.1 µM [cytotoxic, single point]

**Q.** For COc1cc(CCNC2=CC(=O)c3ncccc3C2=O)ccc1O, which Potency is on record?
**A.** active: 7.31 µM

**Q.** With Cc1cc(-c2ccc(C)c(S(=O)(=O)N3CCOc4ccc(Cl)cc43)c2)on1 as the compound, how does the “activity change, negative = cytotoxicity” value read?
**A.** inactive: -20.9%

**Q.** Which “activity change, negative = cytotoxicity” value does the source give for Cc1cc(C)c2c(-n3cccc3)c(C(=O)NNS(=O)(=O)c3ccccc3)sc2n1 here?
**A.** inactive: -14.4%

**Q.** Which Potency does the source give for CC(C)Oc1cc(F)ccc1-c1cc(C(=O)Nc2cccc(C(F)(F)F)c2)[nH]n1 here?
**A.** inconclusive: 29.1 µM [cytotoxic, single point]

**Q.** Which Potency does the source give for CC(Sc1nc(C2CC2)n(-c2ccccc2)n1)C(=O)c1c(N)n(C)c(=O)n(C)c1=O (configuration not stated) here?
**A.** inconclusive: 16.4 µM [cytotoxic, single point]

**Q.** Which Potency does the source give for O=C(NC(=S)Nc1ccc([N+](=O)[O-])cc1)c1ccco1 here?
**A.** inconclusive: 32.6 µM [rising, single point]

**Q.** With CCOC(=O)c1cnc2c(Cl)cc(Cl)cc2c1Nc1ccccc1OC as the compound, how does the Potency read?
**A.** inconclusive: 20.6 µM [rising, single point]

**Q.** For Cc1cccc(CCNC(=O)c2cc3c(s2)-c2c(C)cccc2OC3)c1, which “activity change, negative = cytotoxicity” value is on record?
**A.** inactive: 15.2%

**Q.** Which Potency does the source give for COc1ccc2c(C)cc(SCC(=O)Nc3ccc(Cl)cn3)nc2c1 here?
**A.** inconclusive: 5.8 µM [cytotoxic, partial curve]

**Q.** For CCOc1ccc(NC(=O)C2CSC(c3ccncc3)=N2)cc1 (configuration not stated), which “activity change, negative = cytotoxicity” value is on record?
**A.** inactive: -11.1%

**Q.** With Cc1nn(Cc2ccc(Cl)cc2)c(Cl)c1/C=N/NC(=O)CNc1ccccc1F as the compound, how does the Potency read?
**A.** active: 3.26 µM

**Q.** With CC(C)c1ccc(NC(=O)CN2C(=O)NC(Cc3c[nH]c4ccccc34)C2=O)cc1 (configuration not stated) as the compound, how does the “activity change, negative = cytotoxicity” value read?
**A.** inactive: 2.07%

**Q.** With CC(=O)Nc1cc(-c2ccc(S(C)(=O)=O)cc2)cn2c(-c3ccc(F)cc3)cnc12 as the compound, how does the “activity change, negative = cytotoxicity” value read?
**A.** inactive: -12.4%

**Q.** Which Potency does the source give for COc1ccccc1CCC(=O)N(C)CC(=O)Nc1ccc(Cl)c(C(F)(F)F)c1 here?
**A.** inconclusive: 29.1 µM [cytotoxic, single point]

**Q.** For O=C(Nc1ccc(OC(F)(F)F)cc1)Nc1cccc([N+](=O)[O-])c1, which Potency is on record?
**A.** active: 16.4 µM

**Q.** For COc1ccc(-c2nc(C#N)c(NCc3cccnc3)o2)cc1OC, which Potency is on record?
**A.** inconclusive: 16.4 µM [cytotoxic, partial curve]

**Q.** With O=C(NCCc1ccccc1)c1ccc(Nc2nc3ccccc3n3nnnc23)cc1 as the compound, how does the “activity change, negative = cytotoxicity” value read?
**A.** inactive: 4.69%

**Q.** For Cc1cccc(Nc2nc(N)c([N+](=O)[O-])c(N3CCCC(C)C3)n2)c1 (configuration not stated), which Potency is on record?
**A.** inconclusive: 29.1 µM [cytotoxic, single point]

**Q.** Which Potency does the source give for COc1ccc(NC(=S)Nc2cc(C)cc(C)n2)cc1OC here?
**A.** inconclusive: 2.91 µM [cytotoxic, full curve]

**Q.** For CC1C(O)=C(c2ccccc2)P(=O)(Cc2ccccc2)C1C (configuration not stated), which “activity change, negative = cytotoxicity” value is on record?
**A.** inactive: -5.18%

**Q.** For O=C(Nc1ccc2c(c1)OCCO2)c1cc2ccccc2o1, which Potency is on record?
**A.** inconclusive: 20.6 µM [cytotoxic, single point]

**Q.** For CCNC(=S)N/N=C/c1cccc(C)c1, which “activity change, negative = cytotoxicity” value is on record?
**A.** inactive: 10.8%

**Q.** Which “activity change, negative = cytotoxicity” value does the source give for Cc1cccc(C)c1NC(=O)CNC(=O)c1ccc(NS(=O)(=O)c2ccc3[nH]c(=O)[nH]c3c2)cc1 here?
**A.** inactive: 3.71%

**Q.** Which “activity change, negative = cytotoxicity” value does the source give for Cc1ccc2c(c1)N(C(=O)Nc1cccc3c1CCCC3)CCO2 here?
**A.** inactive: 13.2%

**Q.** For O=C(O)C(CO)(c1ccccc1)c1ccccc1, which “activity change, negative = cytotoxicity” value is on record?
**A.** inactive: -5.67%

**Q.** Which Potency does the source give for CCc1ccc(/C=C/C(=O)c2c(C)cc(C)[nH]c2=O)cc1 here?
**A.** inconclusive: 23.1 µM [cytotoxic, single point]

**Q.** For COc1ccc(CNC(=O)c2sc(=O)n(Cc3ccccc3OC)c2C)cc1, which Potency is on record?
**A.** active: 9.2 µM

**Q.** Which “activity change, negative = cytotoxicity” value does the source give for Cc1ccc(NC(=O)CS(=O)CC(=O)Nc2ccccc2-c2ccc(C)o2)cc1 (configuration not stated) here?
**A.** inactive: -3.31%

**Q.** With O=C(NCc1ccco1)c1ccc(F)c(S(=O)(=O)N2CCCCC2)c1 as the compound, how does the Potency read?
**A.** inconclusive: 29.1 µM [cytotoxic, single point]

**Q.** For O=C(Nc1nnc(SCc2ccccc2F)s1)C1=COCCO1, which Potency is on record?
**A.** inconclusive: 6.51 µM [rising, partial curve]

**Q.** For COCc1ccc(CN2CCCC(CO)(Cc3cccc(OC)c3)C2)o1 (configuration not stated), which Potency is on record?
**A.** inconclusive: 8.2 µM [cytotoxic, partial curve]

**Q.** Which Potency does the source give for CCC(C)(C)NC(=O)C(c1ccc(OC)cc1)N(CCOC)C(=O)CCC(=O)Nc1nccs1 (configuration not stated) here?
**A.** inconclusive: 20.6 µM [cytotoxic, partial curve, poor fit]

**Q.** Which activity change, negative = cytotoxicity does the source give for COc1ccc(NC(=O)c2nc(S(=O)(=O)Cc3cccc(C)c3)ncc2Cl)c(OC)c1 here?
**A.** inconclusive: 31%

**Q.** With Cc1ccnc(N2CCC(C(=O)Nc3ccc4c(c3)OCO4)CC2)n1 as the compound, how does the Potency read?
**A.** inconclusive: 18.4 µM [cytotoxic, partial curve, poor fit]

**Q.** For COCCSc1nnc(NC(=O)C2CCN(C(=O)c3ccco3)CC2)s1, which Potency is on record?
**A.** inconclusive: 23.1 µM [rising, single point]

**Q.** With CCCc1nc(NC2CCCCC2)c(C#N)c2c1COC(C)(C)C2 as the compound, how does the “activity change, negative = cytotoxicity” value read?
**A.** inactive: 2.37%

**Q.** With COc1ccc(O)c(C2=Nc3ccccc3N=C(c3ccccc3)C2)c1 as the compound, how does the Potency read?
**A.** inconclusive: 14.6 µM [cytotoxic, partial curve] and inconclusive: 29.1 µM [cytotoxic, single point]

**Q.** With COc1cc(C(=O)NCCc2csc(-c3ccc(Cl)cc3)n2)cc(OC)c1OC as the compound, how does the Potency read?
**A.** inconclusive: 18.4 µM [cytotoxic, partial curve]

**Q.** With Cc1cccn2c(=O)c(/C=C(\C#N)C(=O)NC3CCS(=O)(=O)C3)c(N3CC(C)OC(C)C3)nc12 (configuration not stated) as the compound, how does the “activity change, negative = cytotoxicity” value read?
**A.** inactive: 3%

**Q.** For COc1ccc(Cc2n[nH]c(=S)n2NC(=O)Nc2ccc(Cl)c(Cl)c2)cc1, which “activity change, negative = cytotoxicity” value is on record?
**A.** inactive: 1.32%

**Q.** With COc1ccc(-c2noc(CSc3nnc(C)n3-c3cccc(C)c3)n2)cc1 as the compound, how does the “activity change, negative = cytotoxicity” value read?
**A.** inactive: -30.7%

**Q.** With COc1ccc(N2CCN(C(=O)c3cccc(NC(=O)c4ccco4)c3)CC2)cc1 as the compound, how does the Potency read?
**A.** inconclusive: 9.2 µM [cytotoxic, partial curve]

**Q.** For CCCC1COC(Cn2cncn2)(c2ccc(C)cc2)O1 (configuration not stated), which Potency is on record?
**A.** inconclusive: 20.6 µM [cytotoxic, partial curve, poor fit]

**Q.** For COc1ccccc1CCNC(=O)CSc1ccc(-c2cccs2)nn1, which Potency is on record?
**A.** inconclusive: 14.6 µM [cytotoxic, partial curve]

**Q.** Which “activity change, negative = cytotoxicity” value does the source give for CC(=O)Nc1ccc(S(=O)(=O)NCCc2ccc(S(N)(=O)=O)cc2)cc1 here?
**A.** inactive: -24.3%

**Q.** Which Potency does the source give for Cc1nc(SCc2nc3cc(Cl)c(F)cc3[nH]2)c2oc3ccccc3c2n1 here?
**A.** inconclusive: 29.1 µM [cytotoxic, single point]

**Q.** For COc1ccccc1C1CC(=O)NC(C)=C1C(=O)OC(C)C (configuration not stated), which Potency is on record?
**A.** inconclusive: 20.6 µM [cytotoxic, single point]

**Q.** Which Potency does the source give for COC(=O)C[C@H]1N(S(=O)(=O)c2ccc(C)cc2)C(C(C)C)CC1(C(=O)OC)C(=O)OC (some centres not stated) here?
**A.** inconclusive: 4.61 µM [cytotoxic, partial curve]

**Q.** For Cc1cccc(NC(=O)CCSc2ccccn2)c1, which Potency is on record?
**A.** inconclusive: 5.17 µM [rising, partial curve, poor fit]

**Q.** With COc1ccc(NC(=O)C(NC(C)=O)C(=O)NCc2ccc(F)cc2)cc1 (configuration not stated) as the compound, how does the “activity change, negative = cytotoxicity” value read?
**A.** inactive: 4.84%

**Q.** With CCOC(=O)C1=CCN(S(=O)(=O)c2ccccc2Br)C1c1ccc(Cl)c(Cl)c1 (configuration not stated) as the compound, how does the Potency read?
**A.** inconclusive: 18.4 µM [cytotoxic, single point]

**Q.** For CCC(C)n1c(SCc2ccccc2)nc2ccsc2c1=O (configuration not stated), which Potency is on record?
**A.** active: 10.3 µM

**Q.** With Cc1cc(C)nc(N2CCC(C(=O)NCCc3ccc(Cl)cc3)CC2)n1 as the compound, how does the “activity change, negative = cytotoxicity” value read?
**A.** inactive: -8.76%

**Q.** Which “activity change, negative = cytotoxicity” value does the source give for CCOc1ccc2nc(NC(=O)C(NS(=O)(=O)c3cccc4nsnc34)C(C)C)sc2c1 (configuration not stated) here?
**A.** inactive: 8.98%

**Q.** Which Potency does the source give for CCOc1ccc(N(CC(=O)Nc2ccccc2Cl)S(C)(=O)=O)cc1 here?
**A.** inconclusive: 4.11 µM [cytotoxic, full curve]

**Q.** Which Potency does the source give for C#CCSc1nnnn1-c1ccc(Br)c(C)c1 here?
**A.** inconclusive: 25.9 µM [cytotoxic, partial curve, poor fit]

**Q.** With CSc1nc(-c2ccc(C)cc2)[nH]c1S(=O)(=O)c1ccccc1 as the compound, how does the “activity change, negative = cytotoxicity” value read?
**A.** inactive: -1.02%

**Q.** Which Potency does the source give for CCN(CC)S(=O)(=O)c1ccc(C(=O)NCCCN=C2NS(=O)(=O)c3ccccc32)cc1 here?
**A.** inconclusive: 18.4 µM [rising, partial curve, poor fit]

**Q.** Which “activity change, negative = cytotoxicity” value does the source give for O=C(CN1C(=O)CC(c2ccccc2)=Nc2ccccc21)Nc1ccc(Br)cc1 here?
**A.** inactive: -24.2%

**Q.** With CC1CCCC(C)N1C(=O)COC(=O)c1cccs1 (configuration not stated) as the compound, how does the Potency read?
**A.** inconclusive: 16.4 µM [rising, single point]

**Q.** Which Potency does the source give for Cc1nnc(SCc2nnc(-c3cccs3)o2)s1 here?
**A.** inconclusive: 29.1 µM [rising, single point]

**Q.** Which Potency does the source give for CCCOc1ncnc2c1[nH]c1ccccc12 here?
**A.** inconclusive: 23.1 µM [cytotoxic, partial curve]

**Q.** For CCOC(=O)c1c(C)[nH]c(C(=O)/C(C#N)=C/c2ccc(OC(F)F)c(OC)c2)c1C, which Potency is on record?
**A.** inconclusive: 13 µM [cytotoxic, partial curve]
